# Reference: PubChem BioAssay AID504444 (National Center for Advancing Translational Sciences (NCATS), 2011)
# The campaign covered roughly 360,000 compounds. About 7,500 (2.1%) were called active. Inconclusive means that the source gave no clear call. Such entries were picked first, then a sample of the others. Calls follow the shape of the dose curve; as a rule, active = well fitted inhibition curve with a large enough effect; inconclusive = small, poorly fitted or top-dose-only effect, or effect the other way; inactive = flat fitted curve, though single readings scatter. Potencies of inconclusive entries are doubtful fits and often do not repeat.
# Experiment: Nrf2 qHTS screen for inhibitors; also: nearly all actives have a fitted effect of over 60% in size
# Conditions: A549 ARE-Fluc reporter, luciferase luminescence, 18-24 h; activity change, negative = inhibition: at 46 µM (top of the series)
# Procedure, shortened: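 In this cell-based qHTS, ARE-driven firefly luciferase in A549 cells reports Nrf2 activity; the luminescent signal after BugLite lysis is the measured value, with a prior CellTiter-Fluor read for cell health.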
# % is scaled to controls: 0 for no effect and ±100 for the full control effect; potency is read from the fitted curve at half-maximal effect.
SMILES,Potency,"activity change, negative = inhibition"
COc1ccc(C2/C=C\CN(C(=O)c3ccc(C)cc3)C(C)C(=O)N2Cc2ccc(F)cc2)cc1 (centres undefined),"inconclusive: 18.4 µM [falling, partial curve]",
Cn1cnnc1SCC(=O)c1ccc2c(c1)CCCC2,"inconclusive: 18.4 µM [activator, partial curve]",
COc1cccc2c1-c1c(O)cccc1C2=O,,inactive: 12.7%
Cc1ccc(NS(=O)(=O)c2ccc(N3CCN(c4ccc(O)cc4)CC3)c([N+](=O)[O-])c2)c(C)c1,"inconclusive: 23.1 µM [falling, single point]",
Cc1cc(-n2c(SCC(=O)Nc3ccc(F)c(F)c3)nc3n[nH]c(C)c3c2=N)ccc1Cl,"inconclusive: 5.17 µM [falling, single point]",
CCn1cc(C(=O)NC(C)C23CC4CC(CC(C4)C2)C3)cn1 (centres undefined),,inactive: 4.34%
COc1cc(/C=N/NC(=O)c2nonc2N)cc(OC)c1OC,,inactive: 12.1%
CCN(CC)S(=O)(=O)c1ccc(N2CCOCC2)c(NC(=O)c2cc(Cl)c3c(c2)OCO3)c1,"inconclusive: 3.26 µM [activator, partial curve, poor fit]",
CC1CCN2c3ccccc3CC3(C(=O)OC(C)(C)OC3=O)C2C1 (centres undefined),,inactive: -7.75%
Cc1cc(=O)[nH]c(N/N=C2/CCCC/C2=C\c2ccccc2)n1,,inactive: 4.03%
COc1ccc(-c2nc(-c3cccc(C(F)(F)F)c3)no2)cc1OC,"inconclusive: 8.2 µM [falling, partial curve, poor fit]",
COc1ccc(CNC(=O)Cc2c(C)c3c(cc(C)c4c(C)c(C)oc43)oc2=O)cc1,,inactive: 15.9%
CCSc1ncc(Cl)c(C(=O)Nc2nc3ccc(OC)cc3s2)n1,"inconclusive: 29.1 µM [falling, single point]",
O=C(Nc1nccs1)c1ccc(-c2cccc([N+](=O)[O-])c2)o1,"inconclusive: 20.6 µM [falling, partial curve]",
CCCc1cc(=O)oc2c3c(cc(OCC(=O)NCc4ccccn4)c12)OC(C)(C)CC3,"inconclusive: 8.2 µM [falling, partial curve, poor fit]",
O=C(NC(NC(=S)Nc1c(Cl)cccc1Cl)C(Cl)(Cl)Cl)OCc1ccccc1 (centres undefined),"inconclusive: 25.9 µM [falling, single point]",
CC1Cc2ccccc2N1C(=O)CSc1ccccc1 (centres undefined),"inconclusive: 29.1 µM [activator, single point]",
Oc1csc(Cc2nc(-c3ccccc3F)cs2)n1,"inconclusive: 23.1 µM [activator, single point]",
COc1ccc(CCC(=O)N(C)CC(=O)Nc2ccc(N3CCOCC3)cc2)cc1,"inconclusive: 0.0046 µM [falling, full curve, poor fit]",

# Whole records, quoted from the list:
# COc1ccc(C2/C=C\CN(C(=O)c3ccc(C)cc3)C(C)C(=O)N2Cc2ccc(F)cc2)cc1 (centres undefined) in the list: Potency: inconclusive: 18.4 µM [falling, partial curve]
# COc1cccc2c1-c1c(O)cccc1C2=O in the list: activity change, negative = inhibition: inactive: 12.7%
